Assay results published in publication PMC12000354.
These are yes or no findings as the source states them, for the method shown. Binding seen in cells or lysates may run through a third protein. Some results given as binding are weak or reduced against the parent protein; the word gives no strength. Tags and fused reporters may be left off the sequences shown. Each block holds one molecule with its values, some of them ahead of it.

Amino acid sequences for entries named in this document (tags omitted).
UniProt Q86WJ1: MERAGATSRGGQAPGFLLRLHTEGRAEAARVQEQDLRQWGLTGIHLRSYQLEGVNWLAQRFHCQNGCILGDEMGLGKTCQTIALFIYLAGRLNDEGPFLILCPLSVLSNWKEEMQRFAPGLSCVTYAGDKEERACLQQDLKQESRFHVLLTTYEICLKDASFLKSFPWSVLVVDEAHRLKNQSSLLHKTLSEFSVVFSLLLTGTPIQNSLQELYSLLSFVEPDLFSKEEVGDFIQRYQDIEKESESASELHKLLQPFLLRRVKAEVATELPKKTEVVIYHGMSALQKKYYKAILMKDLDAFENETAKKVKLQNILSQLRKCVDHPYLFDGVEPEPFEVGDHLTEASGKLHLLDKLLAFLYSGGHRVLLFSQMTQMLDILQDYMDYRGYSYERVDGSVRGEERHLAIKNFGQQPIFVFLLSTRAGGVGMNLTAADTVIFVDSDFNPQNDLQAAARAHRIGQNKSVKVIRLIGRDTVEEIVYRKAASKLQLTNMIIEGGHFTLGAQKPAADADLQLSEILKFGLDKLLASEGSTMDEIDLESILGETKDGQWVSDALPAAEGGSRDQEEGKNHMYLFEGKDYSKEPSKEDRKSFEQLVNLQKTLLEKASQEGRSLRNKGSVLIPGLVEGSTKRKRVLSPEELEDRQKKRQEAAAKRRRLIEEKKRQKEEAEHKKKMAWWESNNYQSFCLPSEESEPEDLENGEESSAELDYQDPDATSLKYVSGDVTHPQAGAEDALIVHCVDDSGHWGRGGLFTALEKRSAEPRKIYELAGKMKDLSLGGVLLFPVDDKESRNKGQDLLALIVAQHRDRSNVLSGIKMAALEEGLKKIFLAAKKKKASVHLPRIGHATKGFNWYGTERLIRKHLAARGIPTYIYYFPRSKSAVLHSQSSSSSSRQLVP

Experiments:
[1] = biological target: T1, Flag-VRK1 (Vaccinia-related kinase 1) (UniProt Q99986); assay: co-IP; 293T cells with ectopic Flag-VRK1 and HA-CHD1L; anti-Flag or anti-HA magnetic beads, overnight 4 °C, Western blot; both directions
T1 sequence: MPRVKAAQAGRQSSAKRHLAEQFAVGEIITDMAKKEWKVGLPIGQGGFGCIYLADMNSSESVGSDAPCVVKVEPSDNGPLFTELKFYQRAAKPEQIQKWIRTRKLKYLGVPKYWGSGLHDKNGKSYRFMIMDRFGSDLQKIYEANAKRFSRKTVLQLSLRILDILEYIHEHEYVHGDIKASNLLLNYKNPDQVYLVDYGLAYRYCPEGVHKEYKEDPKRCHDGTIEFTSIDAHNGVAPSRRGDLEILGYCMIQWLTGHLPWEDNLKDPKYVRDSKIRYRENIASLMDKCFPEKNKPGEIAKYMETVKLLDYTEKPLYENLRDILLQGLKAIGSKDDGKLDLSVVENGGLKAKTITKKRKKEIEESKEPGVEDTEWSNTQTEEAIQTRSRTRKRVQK

[2] = biological target: T1, Flag-VRK1 (Vaccinia-related kinase 1); assay: co-IP; Huh7 cells with ectopic Flag-VRK1 and HA-CHD1L; anti-Flag or anti-HA magnetic beads, overnight 4 °C, Western blot; both directions
[3] = biological target: T1, Flag-VRK1 (Vaccinia-related kinase 1); assay: co-IP; Huh7 cells with control plasmid or transient Flag-VRK1; Flag-VRK1 immunoprecipitated (anti-Flag magnetic beads, overnight 4 °C, IP lysis solution), endogenous partners by Western blot
[4] = biological target: HA-CHD1L (chromodomain helicase DNA binding protein 1-like) (human) (UniProt Q86WJ1); assay: co-IP; 293T cells with ectopic Flag-VRK1 and HA-CHD1L; anti-Flag or anti-HA magnetic beads, overnight 4 °C, Western blot; both directions
[5] = biological target: HA-CHD1L (chromodomain helicase DNA binding protein 1-like) (human) (UniProt Q86WJ1); assay: co-IP; Huh7 cells with ectopic Flag-VRK1 and HA-CHD1L; anti-Flag or anti-HA magnetic beads, overnight 4 °C, Western blot; both directions

binding [1]: binds
binding [2]: binds
Molecule: HA-CHD1L (chromodomain helicase DNA binding protein 1-like) (from UniProt Q86WJ1 1-897)

binding [3]: binds
Molecule: endogenous CHD1L (chromodomain helicase DNA binding protein 1-like) (from UniProt Q86WJ1 1-897)

binding [4]: binds
binding [5]: binds
B1: Flag-VRK1 (Vaccinia-related kinase 1) (enzyme, UniProt Q99986 1-396)
chain: T1 sequence
